From patent US20240368303A1
Results are given in words; binding and its absence hold for the method and conditions named. Some results given as binding are weak or reduced against the parent protein; the word gives no strength.

Amino acid sequences for entries named in this document (tags omitted).
UniProt Q8CFZ4: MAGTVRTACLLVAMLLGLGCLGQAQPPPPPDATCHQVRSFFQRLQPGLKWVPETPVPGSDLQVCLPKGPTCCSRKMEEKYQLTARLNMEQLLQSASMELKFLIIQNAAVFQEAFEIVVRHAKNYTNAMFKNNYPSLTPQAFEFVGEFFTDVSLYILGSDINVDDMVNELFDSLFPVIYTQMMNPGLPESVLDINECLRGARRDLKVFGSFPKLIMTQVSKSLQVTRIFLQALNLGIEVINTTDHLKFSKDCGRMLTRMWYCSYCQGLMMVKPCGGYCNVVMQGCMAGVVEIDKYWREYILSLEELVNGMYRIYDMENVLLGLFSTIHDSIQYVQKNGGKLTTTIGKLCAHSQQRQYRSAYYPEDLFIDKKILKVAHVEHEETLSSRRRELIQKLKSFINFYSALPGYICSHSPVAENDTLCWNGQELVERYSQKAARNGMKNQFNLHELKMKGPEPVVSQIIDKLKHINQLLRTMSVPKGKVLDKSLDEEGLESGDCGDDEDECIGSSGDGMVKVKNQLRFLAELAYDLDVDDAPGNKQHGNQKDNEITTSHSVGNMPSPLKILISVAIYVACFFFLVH

How the values were obtained:
[1] = molecular target: recombinant cynomolgus GPC3 (cynomolgus); test: ELISA
[2] = molecular target: recombinant mouse GPC3 (mouse) (UniProt Q8CFZ4); test: ELISA

B1: anti-GPC3 1A1 mAb (antibody, human IgG1, kappa, V domains shown)
VH: EVQLVQSGAEVKKPGASVKVSCKASGYTFTSYGISWVRQAPGQGLEWMGWISAYNGNTNYAQKLQGRVTMTTDTSTSTAYMELRSLRSDDTAVYYCARAGTPTQILRYFDWLSQPFDYWGQGTLVTVSS
VL: EIVLTQSPLSLPVTLGQPASISCRSSQSLVYSDGNTYLNWFHQRPGQSPRRLIYKVSNRDSGVPERFSGSGSGTDFTLKISRVEAEDVGVYYCMQSTHWPLTFGGGTKVEIKR
For B1, the binding [1] was “binds” and the binding [2] was “binds”.
